Measured values as given in PubChem BioAssay AID1794845 (National Center for Advancing Translational Sciences (NCATS), 2023).
Hit rate of the full screen: of about 6,900 compounds, fewer than 10 were called active. Calls come from the whole dose curve; as a rule, active = well fitted curve in the direction sought with a large enough effect; inconclusive = small, poorly fitted or top-dose-only effect, or another doubt; inactive = no such curve, though single readings can be large or run the other way. The list shows a part of the results.

Chains of the proteins cited; added tags and fusions are not shown. Lines headed by an entry give the natural chain unless they say otherwise; changes in a name come on top.
UniProt C7C422: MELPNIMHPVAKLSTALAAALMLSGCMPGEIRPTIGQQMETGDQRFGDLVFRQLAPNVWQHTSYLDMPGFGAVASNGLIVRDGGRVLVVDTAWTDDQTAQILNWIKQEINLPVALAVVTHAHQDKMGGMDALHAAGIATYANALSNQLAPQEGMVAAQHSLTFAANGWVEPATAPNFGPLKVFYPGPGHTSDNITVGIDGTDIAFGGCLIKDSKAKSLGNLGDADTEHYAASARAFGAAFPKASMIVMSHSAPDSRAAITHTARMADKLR

molecular target: Metallo-beta-lactamase type 2 (Klebsiella pneumoniae) (UniProt C7C422); assay: qHTS to identify inhibitors of the New Delhi Metallo-beta-lactamase (NDM): primary screen against the NCATS Gemini Collection; conditions: NDM-1 enzyme, meropenem hydrolysis, absorbance 300 nm; at 38.4 µM (top of the series) unless noted; note: % of control where 0% means no effect
In short: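 NDM-1 at 2 nM final in 50 mM HEPES pH 7.0, 1 uM ZnSO4, 0.01% Tween20, preincubated >30 min with compound. Meropenem 50 uM final added; absorbance at 300 nm after 30 min.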

Activity % (negative = inhibition), inactive:
Cn1cccc1C(=O)N1CC[C@H](CO)[C@H](NC(=O)C2CC2)C1 4.08%
COC(=O)CNC(=O)c1nc(-c2ccc(Cl)nc2)c2ccccn12 -6.02%
COc1ccccc1-c1cn2c(n1)CO[C@@H](CNC1CCOCC1)C2 0.191% [at 57.5 µM]
Cn1cc(Nc2ccc(Cl)cc2)c2nc(CN3CC[S+](=O)([O-])CC3)cn2c1=O 29.2% [at 57.5 µM]
COC[C@H]1C[C@@H](NC(=O)Nc2ccc(F)cc2)[C@H](O)[C@@H]1O 26.3% [at 57.5 µM]
CC1(C(=O)N2CCc3ccccc32)CCCCC(=O)N1 (stereo not drawn) 1.12%
Cc1cc(C)n2nc(C)c(C(=O)N3CCCC(c4cccc(C(=O)O)c4)C3)c2n1 (stereo not drawn) -5.79%
COc1ccc(CC(=O)N2CCC3(CC2)C(=O)NCN3C(=O)C2CCCC2)cc1 -1.94%
CCn1ccnc1CN(C)Cc1cccc(OCC(O)CN(C)C2CCCCC2)c1 (stereo not drawn) -10.7%
Cc1ccc(NC(=O)Cn2c(N3CCN(c4ccccc4)CC3)nc(C)cc2=O)cc1 11.3%
O=C(NCc1cccs1)c1c[nH]c2ncccc12 10.3% [at 57.5 µM]
Cn1nccc1C(=O)N1CC(C(=O)Nc2ccccn2)C2(CCOCC2)C1 (stereo not drawn) -0.568%
Cc1nn2c(c1-c1ccccc1OCc1ccccc1)N(Cc1nccn1C)CCC2 -5.19% [at 57.5 µM]
COc1ccc(CC2CCOC3(CCN(S(=O)(=O)c4c(C)nn(C)c4C)CC3)C2)cc1 (stereo not drawn) 6.76%
Cc1cn(C[C@H](NC(=O)c2cccc(F)c2)C(=O)O)c(=O)[nH]c1=O 5.68% [at 57.5 µM]
CC1=C[C@@H](CN2CCC(O)CC2)[C@H](C(C)C)C[C@H]1Cc1nnc(-c2ccncc2)o1 -0.749% [at 57.5 µM]
O=C(CCC1CCCN(Cc2cccn2-c2ccccn2)C1)Nc1ccccc1F (stereo not drawn) -2.8%
Cc1nn(C)c(=O)n1C1CCN(C(=O)c2ccco2)CC1 1.16%
O=C(NC1CCCN(c2cc(-c3ccc(F)cc3)[nH]n2)C1)c1cnccn1 (stereo not drawn) -0.18%
Cc1cnc(CCNC(=O)Cc2ccncc2)n1CC1CC1 0.362%
CN(Cc1nccs1)C(=O)CC(c1ccccc1)c1cccc(Cl)c1 (stereo not drawn) 0.0291%
Cc1noc(C)c1[S+](=O)([O-])N1CCn2cc(C(=O)Nc3ccc(Cl)cc3Cl)nc2C1 0.75%
CCOc1ccccc1C(=O)N1CCC(c2n[nH]c(=O)n2Cc2ccc(OC)cc2)CC1 0.475%
Cc1ccccc1-c1cn(C)c(=O)n2cc(CNc3ccccc3)nc12 1.9% [at 57.5 µM]
COc1ccccc1C(C(=O)O)N1CCC(OCc2cccnc2)CC1 (stereo not drawn) -3.99%
CN1CCC(Nc2ncc(C(C)(C)C(=O)O)c(N3CCOCC3)n2)CC1 12.5%
OC[C@@H]1O[C@H](CNCc2cccc(Cl)c2)[C@H](N2CCN(c3ccccn3)CC2)[C@@H]1O 9.15%
O=C(O)CC1CCCCN(Cc2ccccc2)C1=O (stereo not drawn) 17.2%
O=C(CCc1nnn2c1CN(Cc1cn[nH]c1-c1ccc(F)cc1)CC2)N1CCCC1 79.3%
O=C(CSCC1CC1)N1CCC2(CCC(=O)N(CCCn3ccnc3)C2)CC1 7.81%
Cc1cc(F)ccc1C(=O)N1CCn2nc(Cc3ccccc3)cc2C1 -2.54%
Cc1ccccc1C(=O)NCc1cccnc1Oc1cccc(C(F)(F)F)c1 -4.3%
Cc1nn(-c2ccccn2)c(C)c1[C@@H]1C=C[C@@H](NC(=O)NC(C)C)C1 -0.999% [at 57.5 µM]
CC(C)NC(=O)c1ccnc(-c2ccccc2S(=O)(=O)NC(C)(C)C)c1 -0.0419%
O=C1NCCOCCCN(C(=O)C2(c3ccccc3)CC2)[C@H]2CCCC[C@@H]12 28.8%
OC[C@@H]1CN(CC2CCCCC2)C[C@H]1c1nc(C2CC2)no1 10.8%
CCS(=O)(=O)N1CCC(N2C(=O)C(OCC3CC3)C23CCCCC3)CC1 (stereo not drawn) -3.85%
CC(C)C1=NOC2(CCN([S+](=O)([O-])c3cccc(C(F)(F)F)c3)C2)C1 (stereo not drawn) -0.392%
COC[C@@H]1CN(S(=O)(=O)c2c(C)noc2C)C[C@H]1c1ccncc1 -0.785%
Cc1ccc(C(N)=O)cc1-c1cc(NCc2cccnc2)nc2[nH]ccc12 1.47%
Cn1c(=O)c2c(ncn2CC(=O)N2CCC(Cc3nc(C4CCOCC4)no3)CC2)n(C)c1=O 6.69%
COc1ccc(C[C@@H]2NC(=O)[C@@H]3C[C@@H](NC(=O)Nc4cccc(SC)c4)CCN3C2=O)cc1 4.23%
Cc1nn(CC(=O)NC(C)Cc2cnccn2)c(=O)n1CCc1ccccc1 (stereo not drawn) 0.454%
O=S(=O)(c1ccccc1)c1nnn2c1nc(N1CCCCC1)c1ccccc12 1.98%
COCC(=O)NC[C@H]1CCN(Cc2ccc(C)s2)C[C@H]1N(C)C -11.1%
COCCS(=O)(=O)c1ncc(CN(C)Cc2ccsc2)n1Cc1ccccc1 0.926%
Cc1ccccc1CN1CCOc2cc([S+](=O)([O-])Nc3cccnc3)ccc2C1 4.66% [at 57.5 µM]
c1ccc(-c2ccc(CN3CCOC[C@H](Oc4cnccn4)C3)cc2)cc1 13.5% [at 57.5 µM]
Cn1ncc2c(-c3ccc([S+](C)(=O)[O-])cc3)cc(C(=O)N3CCCC3)nc21 3.84%
COc1cccc(S(=O)(=O)N2CC3(Cc4ccccc4C(=O)N3)C2)c1 -0.576%
CN1C(=O)CC[C@]2(C(=O)NCc3cc(F)cc(F)c3)CCCC[C@@H]12 -4.96%
Cc1noc2c(NCc3ccccc3)cc(-c3cccnc3)nc12 6.07% [at 57.5 µM]
O=C1CC(C(=O)O)C2(CCN(c3cc(C4CC4)ncn3)CC2)N1 (stereo not drawn) 10.9%

Of the compounds above, three contain a thiophene ring, fused or not:
Activity % (negative = inhibition), inactive:
O=C(NCc1cccs1)c1c[nH]c2ncccc12 10.3% [at 57.5 µM]
COCC(=O)NC[C@H]1CCN(Cc2ccc(C)s2)C[C@H]1N(C)C -11.1%
COCCS(=O)(=O)c1ncc(CN(C)Cc2ccsc2)n1Cc1ccccc1 0.926%
